Measured data: PubChem BioAssay AID1259405 (NCATS, 2018)
This is one part, drawn at random, of about 50,000 reagents. About 4,000 of all reagents (8%) count as active. 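Mouse siRNA library applied to hamster cells; one well for each siRNA.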 Unmarked entries are inactive.

- Assay: 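Silenced genes that increase secreted GFP made by CHO cells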 (primary screen)
- Cell system: Chinese hamster CHO-K1 ovary cells with stable secreted eGFP expression
- Knock-down reagent: single siRNA against mouse genes, 0.8 pmol siRNA per well (2 µl of 400 nM stock)
- Timing: 3 days
- Read-out: 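Per-well intracellular GFP measured by laser scanning cytometry, plus viability from ATP luminescence, each relative to plate median of non-targeting control wells, in %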
- Direction: GFP, % of control: higher = more GFP per well, higher productivity; viability (ATP), % of control: higher = more viable cells (more ATP)
- Rule for the call: 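Called active when intracellular GFP, relative to negative control, is at or above 120%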

| target | PubChem SID | GFP, % of control | viability (ATP), % of control |
| --- | --- | --- | --- |
| Ints4 | SID363544012 | 110 | 79.4 |
| Ints4 | SID363551748 | 56.6 | 78 |
| Ints4 | SID363559353 | 74.3 | 76.1 |
| Alppl2 | SID363575274 | 109 | 76.4 |
| Alppl2 | SID363580906 | 85.5 | 73.1 |
| Alppl2 | SID363583018 | 81 | 68.6 |
| Calhm5 | SID363546584 | 48.3 | 62.7 |
| Calhm5 | SID363548340 | 68.1 | 79.9 |
| Calhm5 | SID363560518 | 66.9 | 84.8 |
| Cox5a | SID363581874 | 61.6 | 70 |
| Cox5a | SID363589368 | 52.1 | 51.5 |
| Sprr2i | SID363556472 | 74.6 | 76.9 |
| Sprr2i | SID363586922 | 68.2 | 82.3 |
| Sprr2i | SID363589030 | 164 (active) | 153 |
| Hirip3 | SID363550117 | 102 | 61.6 |
| Hirip3 | SID363564626 | 98 | 69 |
| Hirip3 | SID363588171 | 146 (active) | 132 |
| Add2 | SID363541004 | 89.9 | 84.1 |
| Add2 | SID363555631 | 67.2 | 72.8 |
| Add2 | SID363565920 | 104 | 88.7 |
| Nrxn1 | SID363568870 | 94.6 | 87.8 |
| Nrxn1 | SID363576262 | 57.2 | 79.8 |
| Nrxn1 | SID363579078 | 110 | 111 |
| Foxj1 | SID363573212 | 87.8 | 99.4 |
| Foxj1 | SID363588451 | 83.5 | 60.8 |
| Pnma3 | SID363554493 | 39.2 | 30.2 |
| Pnma3 | SID363567940 | 102 | 84.2 |
| Pnma3 | SID363585999 | 104 | 71.5 |
| Anapc10 | SID363572698 | 71.9 | 91.8 |
| Anapc10 | SID363577978 | 104 | 102 |
| Anapc10 | SID363582202 | 77.6 | 105 |

Next part; the last 9 above are carried over.
| target | PubChem SID | GFP, % of control | viability (ATP), % of control |
| --- | --- | --- | --- |
| Nrxn1 | SID363579078 | 110 | 111 |
| Foxj1 | SID363573212 | 87.8 | 99.4 |
| Foxj1 | SID363588451 | 83.5 | 60.8 |
| Pnma3 | SID363554493 | 39.2 | 30.2 |
| Pnma3 | SID363567940 | 102 | 84.2 |
| Pnma3 | SID363585999 | 104 | 71.5 |
| Anapc10 | SID363572698 | 71.9 | 91.8 |
| Anapc10 | SID363577978 | 104 | 102 |
| Anapc10 | SID363582202 | 77.6 | 105 |
| Slain1 | SID363542797 | 54 | 62.1 |
| Slain1 | SID363546314 | 99.9 | 91.1 |
| Slain1 | SID363548070 | 52 | 48.1 |
| Eef1b2 | SID363553951 | 61.7 | 80.2 |
| Eef1b2 | SID363561908 | 70.8 | 65.4 |
| Eef1b2 | SID363565646 | 87 | 86.7 |
| Oxr1 | SID363554630 | 63.7 | 69.5 |
| Oxr1 | SID363568077 | 59.4 | 87.1 |
| Oxr1 | SID363586136 | 73.2 | 98.2 |
| Or5p73 | SID363544930 | 47.5 | 34.7 |
| Or5p73 | SID363551258 | 66.6 | 95.1 |
| Or5p73 | SID363557807 | 50.9 | 41.7 |
| Dleu7 | SID363546943 | 81.2 | 89.6 |
| Dleu7 | SID363549755 | 58 | 65.1 |
| Dleu7 | SID363587809 | 154 (active) | 156 |
| Or11g7 | SID363544993 | 123 (active) | 96 |
| Or11g7 | SID363551321 | 87.5 | 97 |
| Or11g7 | SID363557870 | 57.2 | 51.6 |
| Arel1 | SID363541677 | 56.2 | 61.4 |
| Arel1 | SID363553269 | 58.8 | 55.3 |
| Arel1 | SID363566593 | 67.8 | 68.6 |
| Plch1 | SID363545674 | 113 | 107 |
| Plch1 | SID363549187 | 70.5 | 78.9 |
| Plch1 | SID363562993 | 51 | 42.2 |
| Pole | SID363569550 | 75.9 | 87.8 |
| Pole | SID363577294 | 96 | 68.6 |
| Pole | SID363578702 | 89 | 68.3 |
| Gpd2 | SID363575034 | 80.6 | 83.7 |
| Gpd2 | SID363580666 | 59.4 | 67.6 |
| Gpd2 | SID363582778 | 91.5 | 78.7 |
| Tmem121b | SID363550355 | 72.6 | 100 |
| Tmem121b | SID363564864 | 68.1 | 76.6 |
| Tmem121b | SID363588409 | 94.8 | 114 |
| Gprc5b | SID363571318 | 50 | 59.2 |
| Gprc5b | SID363571670 | 72.3 | 74.8 |
| Gprc5b | SID363572022 | 60.5 | 78.2 |
| Rdh13 | SID363575251 | 82.6 | 101 |
| Rdh13 | SID363580883 | 81.6 | 88 |
| Rdh13 | SID363582995 | 72.1 | 98.5 |
| Plppr1 | SID363547618 | 97.7 | 69 |
| Plppr1 | SID363558387 | 55.9 | 46 |
| Plppr1 | SID363560145 | 72.1 | 87.9 |
| Ipo4 | SID363574800 | 74.5 | 80.4 |
| Ipo4 | SID363575856 | 78.4 | 103 |
| Ipo4 | SID363580432 | 160 (active) | 89.1 |
| Dpp10 | SID363553996 | 131 (active) | 70.2 |
| Dpp10 | SID363561953 | 91.2 | 74.8 |
| Dpp10 | SID363565691 | 70.2 | 72.2 |
| Trim62 | SID363572665 | 79.5 | 70.5 |
| Trim62 | SID363577945 | 96.5 | 64.6 |
| Trim62 | SID363582169 | 78.7 | 105 |
| Tcof1 | SID363572822 | 52.2 | 60.9 |
| Tcof1 | SID363577398 | 68.3 | 44.9 |
| Tcof1 | SID363580918 | 136 (active) | 93.8 |
